Laboratory results reported in PMC8569672.
No constants are given. Whether binding was seen depends on the method and setting. Binding seen in cells or lysates may run through a third protein. Some entries that bind do so weakly or less than the wild type.

Protein sequences, listed by entry. Tags and fused reporters are not part of them.
UniProt Q3TKT4: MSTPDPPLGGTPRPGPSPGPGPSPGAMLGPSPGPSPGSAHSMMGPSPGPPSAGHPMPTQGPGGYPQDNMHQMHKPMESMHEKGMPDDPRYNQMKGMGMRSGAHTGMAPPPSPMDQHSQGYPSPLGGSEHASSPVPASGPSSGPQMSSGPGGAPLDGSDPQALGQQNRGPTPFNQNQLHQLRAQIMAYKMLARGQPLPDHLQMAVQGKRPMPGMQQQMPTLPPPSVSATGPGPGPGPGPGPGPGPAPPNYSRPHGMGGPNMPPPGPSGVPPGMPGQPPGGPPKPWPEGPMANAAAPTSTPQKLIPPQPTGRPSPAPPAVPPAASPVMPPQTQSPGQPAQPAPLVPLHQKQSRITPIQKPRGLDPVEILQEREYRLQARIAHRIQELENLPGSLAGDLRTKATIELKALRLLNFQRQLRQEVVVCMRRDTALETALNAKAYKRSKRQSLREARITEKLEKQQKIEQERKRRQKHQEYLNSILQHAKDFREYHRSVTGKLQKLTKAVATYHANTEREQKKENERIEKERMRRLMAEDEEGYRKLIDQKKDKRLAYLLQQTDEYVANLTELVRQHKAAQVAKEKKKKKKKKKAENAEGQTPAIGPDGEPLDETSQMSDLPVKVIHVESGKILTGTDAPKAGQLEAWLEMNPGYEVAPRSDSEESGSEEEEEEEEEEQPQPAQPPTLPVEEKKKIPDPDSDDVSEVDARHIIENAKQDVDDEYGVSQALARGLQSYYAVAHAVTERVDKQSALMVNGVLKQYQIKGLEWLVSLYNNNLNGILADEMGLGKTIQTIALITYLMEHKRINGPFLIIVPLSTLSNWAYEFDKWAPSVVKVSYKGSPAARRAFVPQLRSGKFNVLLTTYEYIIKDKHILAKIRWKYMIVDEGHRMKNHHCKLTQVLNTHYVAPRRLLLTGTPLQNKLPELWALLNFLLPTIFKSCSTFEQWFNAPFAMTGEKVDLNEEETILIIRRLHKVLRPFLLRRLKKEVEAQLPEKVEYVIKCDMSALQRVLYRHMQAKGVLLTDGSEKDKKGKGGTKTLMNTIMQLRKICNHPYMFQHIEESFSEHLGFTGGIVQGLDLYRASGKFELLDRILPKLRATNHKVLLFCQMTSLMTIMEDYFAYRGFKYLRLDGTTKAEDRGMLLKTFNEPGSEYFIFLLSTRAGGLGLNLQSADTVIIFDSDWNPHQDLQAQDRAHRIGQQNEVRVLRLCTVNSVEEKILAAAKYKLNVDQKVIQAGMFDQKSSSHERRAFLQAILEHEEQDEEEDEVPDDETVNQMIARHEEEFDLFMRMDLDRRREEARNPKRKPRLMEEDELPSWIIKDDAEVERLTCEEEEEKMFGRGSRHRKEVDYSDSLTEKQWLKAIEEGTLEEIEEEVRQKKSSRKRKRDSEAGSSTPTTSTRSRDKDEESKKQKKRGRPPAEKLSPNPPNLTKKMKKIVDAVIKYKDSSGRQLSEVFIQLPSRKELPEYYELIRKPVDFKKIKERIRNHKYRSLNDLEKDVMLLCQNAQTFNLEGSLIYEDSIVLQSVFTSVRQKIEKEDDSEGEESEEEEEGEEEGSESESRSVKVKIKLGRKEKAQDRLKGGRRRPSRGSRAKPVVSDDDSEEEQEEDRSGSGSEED
UniProt Q61502: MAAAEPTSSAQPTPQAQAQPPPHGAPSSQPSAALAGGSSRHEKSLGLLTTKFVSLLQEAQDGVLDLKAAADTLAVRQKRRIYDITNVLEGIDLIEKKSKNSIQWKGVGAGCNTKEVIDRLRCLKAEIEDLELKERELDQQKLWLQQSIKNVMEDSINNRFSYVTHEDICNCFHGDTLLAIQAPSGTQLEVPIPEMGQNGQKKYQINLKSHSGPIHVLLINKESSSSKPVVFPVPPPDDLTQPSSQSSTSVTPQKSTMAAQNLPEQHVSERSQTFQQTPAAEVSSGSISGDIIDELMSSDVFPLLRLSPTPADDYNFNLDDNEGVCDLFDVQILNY

Target: Brahma-related gene 1 (BRG1) (mouse (endogenous in primary murine hepatocytes)) (UniProt Q3TKT4)
Assay: co-IP; immunoprecipitation with anti-BRG1 or IgG from primary murine hepatocyte lysates

Molecule | binding
E2F5 (from UniProt Q61502 1-335) | binds
TFDP1 (protein, UniProt Q08639 1-410) MAKDASLIEANGELKVFIDQNLSPGKGVVSLVAVHPSTVNTLGKQLLPKTFGQSNVNITQQVVIGTPQRPAASNTIVVGSPHTPNTHFVSQNQTSDSSPWSAGKRNRKGEKNGKGLRHFSMKVCEKVQRKGTTSYNEVADELVAEFSAADNHILPNESAYDQKNIRRRVYDALNVLMAMNIISKEKKEIKWIGLPTNSAQECQNLEVERQRRLERIKQKQSQLQELILQQIAFKNLVQRNRQAEQQARRPPPPNSVIHLPFIIVNTSRKTVIDCSISNDKFEYLFNFDNTFEIHDDIEVLKRMGMACGLESGNCSAEDLKVARSLVPKALEPYVTEMAQGSIGGVFVTTTGSTSNGTRLSASDLSNGADGMLATSSNGSQYSGSRVETPVSYVGEDDDDDDDFNENDEED | binds
